“And” between values parts separate entries of the source, which are not always exact repeats. Identical values can stand only once. Out of some 320,000 compounds screened, about 22,000 (6.9%) were called active. Inconclusive means that the source gave no clear call. Such entries were picked first, then a sample of the others. Calls follow the shape of the dose curve; as a rule, active = well fitted inhibition curve with a large enough effect; inconclusive = small, poorly fitted or top-dose-only effect, or another doubt; inactive = no such curve, though single readings can be large or run the other way. Potencies beside an inconclusive call are fits to weak or partial responses and may not hold up.
Test: Primary qHTS for delayed death inhibitors of the malarial parasite plastid, 96 hour incubation
Details: P. falciparum luciferase reporter growth; series mostly up to 28.7 µM; activity change, negative = inhibition: at the top concentration
Text: The goal of this screen is to discover new antimalarial compounds that act by inhibiting the development of the apicoplast in the malarial parasite Plasmodium falciparum. The biochemical processes that make this organelle essential for erythrocytic stage parasites are not well understood. However, antibiotics such as azithromycin and tetracycline, which target the apicoplast translational machinery, have a potent antimalarial effect.
We have developed a cell-based assay that measures parasite growth based on the expression of an integrated copy of a firefly luciferase reporter. To detect small molecules that cause this "delayed death" phenotype, erythrocytes infected with the luciferase-expressing parasites were incubated with compounds for either one or two generations, corresponding to 48 and 96 hours, respectively. Compounds that inhibit parasite growth in the second generation, but not the first, should be enriched in antimalarials that target the apicoplast. Growth inhibition is detected by a decrease in luciferase activity.
Assay Provider: David Fidock and Eric Ekland, Columbia University
Keywords: NIH Roadmap, MLPCN, MLI, MLSMR, qHTS, NCGC, qHTS, malaria, luciferase, viability
Four microliters of infected erythrocytes (2% hematocrit, 0.05% parasitemia final concentration) in culture medium were dispensed and the plates incubated for 96 hours at 37 C in 5% CO2. Two microliters of luciferase detection reagent was added and luminescence was detected by a ViewLux (PerkinElmer) reader.
% is scaled to controls: 0 for no effect and ±100 for the full control effect; potency is read from the fitted curve at half-maximal effect.

| Compound | activity change, negative = inhibition | Potency |
| --- | --- | --- |
| CC(C)c1ccc(S(=O)(=O)N(C)C2(C)CCS(=O)(=O)C2)cc1 (stereo not given) | inactive: 30.4% |  |
| CCc1ccc(Nc2n[n+](-c3ccccc3)c(/C=C/c3ccccc3)s2)cc1 |  | active: 1.17 µM |
| CCn1cc(/C=C/c2cc[n+](C)cc2)c2ccccc21 |  | active: 0.208 µM |
| CN1C(=O)C(CC(=O)NC2CCCCC2)SC1=Nc1ccccc1 (stereo not given) | inactive: 4.63% |  |
| Cc1cc(C)cc(OCC(=O)N2CCc3ccccc3C2)c1 |  | inconclusive: 9.28 µM [inhibitor, single point] |
| CCOC(=O)C1C(=O)CC(C)(O)C(C(=O)OCC)C1c1ccc(N(CC)CC)cc1 (stereo not given) |  | inconclusive: 14.7 µM [inhibitor, single point] |
| Cc1nc2ccc(CCO)cc2s1 |  | inconclusive: 18.5 µM [inhibitor, single point] |
| CCOC(=O)c1csc(N/N=C2\CCc3ccccc32)n1 |  | active: 13.1 µM |
| O=C(Nc1ccc(N2CCCCC2)c(Cl)c1)c1ccc(N2CCOCC2)c([N+](=O)[O-])c1 |  | inconclusive: 0.104 µM [inhibitor, full curve, poor fit] |
| COc1ccc(-c2nc(NC(=O)c3nc4nccc(C)n4n3)sc2C)cc1 |  | inconclusive: 6.57 µM [inhibitor, partial curve, poor fit] |
| CC1CCCCN1S(=O)(=O)c1ccc(C(=O)Nc2nnc(-c3ccco3)o2)cc1 (stereo not given) |  | active: 4.65 µM |
| Cc1onc(-c2c(Cl)cccc2Cl)c1C(=O)N1CCCc2ccccc21 |  | inconclusive: 18.5 µM [inhibitor, single point] |
| CCOc1c(Br)cc(Br)cc1/C=C1\SC(N)=NC1=O |  | inconclusive: 8.28 µM [inhibitor, partial curve] |
| O=C(CSc1cc(Cl)ccc1Cl)NC1CCCc2ccccc21 (stereo not given) |  | inconclusive: 18.5 µM [inhibitor, single point] |
| Cc1ccc(NC(C)C(=O)N/N=C/c2c[nH]c3ccccc23)cc1 (stereo not given) |  | inconclusive: 0.415 µM [inhibitor, full curve] |
| Cc1cccc(CNc2ncnc3ccc(-c4ccc5c(c4)OCCO5)cc23)c1 |  | active: 1.85 µM and active: 3.29 µM |
| O=C(Nc1cccnc1)c1cccc(S(=O)(=O)N2CCc3ccccc32)c1 |  | active: 3.29 µM |
| Cc1ccc(C)c(-n2c(N)c(C(N)=O)sc2=S)c1 | inactive: 15.7% |  |
| CCOC(=O)c1c(C)nc2c(c1-c1ccc(OC)c(OC)c1)C(=O)c1ccccc1-2 |  | inconclusive: 4.65 µM [inhibitor, partial curve, poor fit] |
| COc1cc(C2=NOC(C(=O)Nc3ccc(C(C)=O)cc3)C2)cc(OC)c1OC (stereo not given) |  | inconclusive: 1.04 µM [inhibitor, partial curve, poor fit] |
